Data source: PubChem BioAssay AID1259425 (University of Nebraska Medical Center, 2018)
Test: 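Find knockdowns that reproduce the gene expression pattern seen when KSR1 is lost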 (primary screen). Cells: HCT116 human colon cancer cells. Knock-down reagent: siRNA pool against human genes, 50 nM siRNA. Measured: 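mRNA of six signature genes measured together by branched-DNA assay after 50 nM siRNA pool, blank removed, divided by geometric mean of two housekeeping genes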. Reading the numbers: BNIP3L mRNA: higher = more BNIP3L transcript after knockdown; NDRG1 mRNA: higher = more NDRG1 transcript after knockdown; BNIP3 mRNA: higher = more BNIP3 transcript after knockdown; ALDOC mRNA: higher = more ALDOC transcript after knockdown; ACSL5 mRNA: higher = more ACSL5 transcript after knockdown.
The whole screen tested about 14,000 reagents; shown is a random part of them. No sequences are given here. Not given: the time to read-out.

target gene	BNIP3L mRNA, set 1	NDRG1 mRNA, set 1	BNIP3 mRNA, set 1	ALDOC mRNA, set 1	ACSL5 mRNA, set 1
CAPN15	0.119	0.304	0.442	0.0118	0.193
DYNLT2	0.189	0.972	0.253	0.0232	0.194
NKD2	0.152	0.296	0.307	0.0726	0.3
PRKD1	0.231	0.193	1.13	0.0202	0.155
PARD6G	0.153	0.138	0.257	0.0841	0.375
TTC23	0.0834	0.442	0.493	0.0511	0.144
SNAPC4	0.0919	0.209	0.384	0.0383	0.196
ZNF559	0.192	0.142	0.314	0.0461	0.148
ARPC2	0.0465	0.242	0.311	0.0349	0.237
ASPM	0.144	1.12	0.368	0.023	0.163
CYP1A1	0.0663	0.486	0.317	0.0352	0.126
MRPS11	0.0661	0.125	0.251	0.0353	0.146
TAGLN2	0.172	0.161	0.441	0.0446	0.136
HDHD2	0.0564	0.243	0.266	0.0112	0.176
DMAC2	0.207	0.415	0.407	0.00534	0.26
CDH26	0.0594	0.137	0.231	0.0384	0.115
NRBF2	0.0688	0.222	0.291	0.0315	0.18
FDFT1	0.125	0.3	0.318	0.0577	0.361
S100A4	0.0851	0.158	0.308	0.00818	0.192
SPINK4	0.16	0.105	0.355	0.0392	0.377
FAHD2A	0.0429	0.0791	0.355	0.0215	0.167
STK4	0.138	0.222	0.479	0.00457	0.176
MT-ND3	0.123	0.452	0.253	0.0237	0.0916
AVP	0.123	0.15	0.289	0.0129	0.122
CD22	0.143	0.189	0.217	0.0192	0.185
XDH	0.364	0.744	0.147	0.134	0.153
TCF21	0.0637	0.149	0.182	0.00638	0.107
LINGO1	0.156	0.271	0.186	0.0318	0.206
NCAPG	0.11	0.124	0.344	0.0367	0.244
TTC22	0.211	0.667	0.291	0.0224	0.16
EPS8L1	0.16	0.116	0.406	0.0251	0.15
TSFM	0.123	0.417	0.211	0.0274	0.122
CDC45	0.117	0.26	0.235	0.0243	0.111
FRMPD1	0.0932	0.209	0.352	0.0578	0.169

Records listed so far whose target name begins with A or a (3):
target gene	BNIP3L mRNA, set 1	NDRG1 mRNA, set 1	BNIP3 mRNA, set 1	ALDOC mRNA, set 1	ACSL5 mRNA, set 1
ARPC2	0.0465	0.242	0.311	0.0349	0.237
ASPM	0.144	1.12	0.368	0.023	0.163
AVP	0.123	0.15	0.289	0.0129	0.122
